Results reported in publication PMC8927976.
These are yes or no findings as the source states them, for the method shown. In cells and extracts the contact can be indirect. Some results given as binding are weak or reduced against the parent protein; the word gives no strength. Sequences can lack the tags named with a protein.

By UniProt entry, the sequences of proteins in these tests, tags left out.
UniProt O04719: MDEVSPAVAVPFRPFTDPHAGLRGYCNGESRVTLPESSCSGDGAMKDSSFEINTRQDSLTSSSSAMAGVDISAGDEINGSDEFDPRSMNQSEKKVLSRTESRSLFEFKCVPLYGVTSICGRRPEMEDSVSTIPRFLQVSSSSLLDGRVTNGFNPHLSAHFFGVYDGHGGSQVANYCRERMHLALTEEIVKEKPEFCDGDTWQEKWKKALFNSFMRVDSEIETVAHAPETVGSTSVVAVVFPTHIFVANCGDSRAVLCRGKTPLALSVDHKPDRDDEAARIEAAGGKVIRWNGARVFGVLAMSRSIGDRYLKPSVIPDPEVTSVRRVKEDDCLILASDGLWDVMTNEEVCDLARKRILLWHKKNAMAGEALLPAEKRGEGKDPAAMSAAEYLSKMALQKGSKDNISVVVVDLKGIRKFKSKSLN

Biological target: ABI2, BiFC fusion (pSPYNE-ABI2) (UniProt O04719)
Test: split reporter; BiFC (split YFP); Agrobacterium GV3101 infiltration of Nicotiana tabacum leaves, 72 h, confocal or epifluorescence microscopy (results speak of Arabidopsis protoplasts)

binding: binds
B1: RCAR1, BiFC fusion (pSPYCE-RCAR1) (protein, UniProt Q84MC7 1-187)
chain: MMDGVEGGTAMYGGLETVQYVRTHHQHLCRENQCTSALVKHIKAPLHLVWSLVRRFDQPQKYKPFVSRCTVIGDPEIGSLREVNVKSGLPATTSTERLELLDDEEHILGIKIIGGDHRLKNYSSILTVHPEIIEGRAGTMVIESFVVDVPQGNTKDETCYFVEALIRCNLKSLADVSERLASQDITQ
